These are yes or no findings as the source states them, for the method shown. Binding seen in cells or lysates may run through a third protein. Binding can be weak; no strength is given.
B1: Drosophila Troponin I (protein, UniProt P36188 1-269)
chain: MADDEKKAAAPAAAPAAAAKPAAPAAAPAANGKAAPAANGKAAPAAAAAPAGPPKDPNDPKVKAEEAKKAKQAEIERKRAEVRKRMEEASKAKKAKKGFMTPERKKKLRLLLRKKAAEELKKEQERKAAERRRIIEERCGSPRNLSDASEGELQEICEEYYERMYICEGQKWDLEYEVRKKDWEINDLNAQVNDLRGKFVKPALKKVSKYENKFAKLQKKAAEFNFRNQLKVVKKKEFTLEEEEKEKKPDWSKGKPGDAKVKEEVEAEA
B2: atypical PKC (aPKC) (protein, UniProt A1Z9X0 1-606)
chain: MQKMPSQILNDGSSVSLNSASMNMANTPNSITVKTAYNGQIIITTINKNISYEELCYEIRNICRFPLDQPFTIKWVDEENDPCTISTKMELDEAIRLYEMNFDSQLVIHVFPNVPQAPGLSCDGEDRSIYRRGARRWRKLYRVNGHIFQAKRFNRRAFCAYCQDRIWGLGRQGFKCIQCKLLVHKKCHKLVQKHCTDQPEPLVKERAEESSDPIPVPLPPLPYEAMSGGAEACETHDHAHIVAPPPPEDPLEPGTQRQYSLNDFELIRVIGRGSYAKVLMVELRRTRRIYAMKVIKKALVTDDEDIDWVQTEKHVFETASNHPFLVGLHSCFQTPSRLFFVIEFVRGGDLMYHMQRQRRLPEEHARFYAAEISLALNFLHEKGIIYRDLKLDNVLLDHEGHIKLTDYGMCKEGIRPGDTTSTFCGTPNYIAPEILRGEDYGFSVDWWALGVLLYEMLAGRSPFDLAGASENPDQNTEDYLFQVILEKTIRIPRSLSVRAASVLKGFLNKNPADRLGCHRESAFMDIVSHPFFKNMDWELLERKQVTPPFKPRLDSDRDLANFPPEFTGEAVQLTPDDDHVIDNIDQSEFEGFEYVNPLLMSLEDCV
B3: disc large (Dlg) (protein, UniProt P31007 1-970)
chain: MPVKKQEAHRALELLEDYHARLSEPQDRALRIAIERVIRIFKSRLFQALLDIQEFYELTLLDDSKSIQQKTAETLQIATKWEKDGQAVKIADFIKSSNLNRNCAYEFNNDASSNQTNQSALNQNPIANNVSAQAQAEALSRTFKSELEEILNQRMRIESDTENAKEPTVEQQQKQQQAQQRSSRSPQQQNPQQQQGSKSRSGSQTVNGDDSWLYEDIQLERGNSGLGFSIAGGTDNPHIGTDTSIYITKLISGGAAAADGRLSINDIIVSVNDVSVVDVPHASAVDALKKAGNVVKLHVKRKRGTATTPAAGSAAGDARDSAASGPKVIEIDLVKGGKGLGFSIAGGIGNQHIPGDNGIYVTKLMDGGAAQVDGRLSIGDKLIAVRTNGSEKNLENVTHELAVATLKSITDKVTLIIGKTQHLTTSASGGGGGGLSSGQQLSQSQSQLATSQSQSQVHQQQHATPMVNSQSTEPGSRYASTNVLAAVPPGTPRAVSTEDITREPRTITIQKGPQGLGFNIVGGEDGQGIYVSFILAGGPADLGSELKRGDQLLSVNNVNLTHATHEEAAQALKTSGGVVTLLAQYRPEEYNRFEARIQELKQQAALGAGGSGTLLRTTQKRSLYVRALFDYDPNRDDGLPSRGLPFKHGDILHVTNASDDEWWQARRVLGDNEDEQIGIVPSKRRWERKMRARDRSVKFQGHAAANNNLDKQSTLDRKKKNFTFSRKFPFMKSRDEKNEDGSDQEPFMLCYTQDDANAEGASEENVLSYEAVQRLSINYTRPVIILGPLKDRINDDLISEYPDKFGSCVPHTTRPKREYEVDGRDYHFVSSREQMERDIQNHLFIEAGQYNDNLYGTSVASVREVAEKGKHCILDVSGNAIKRLQVAQLYPVAVFIKPKSVDSVMEMNRRMTEEQAKKTYERAIKMEQEFGEYFTGVVQGDTIEEIYSKVKSMIWSQSGPTIWVPSKESL

Columns and labels:
[1] = molecular target: T1, Drosophila Troponin I (Drosophila (endogenous in Canton-S flies)) (UniProt P36188); assay: co-IP
T1 sequence: B1 chain

[2] = molecular target: Par-3/Bazooka (Drosophila (endogenous in Canton-S flies)); assay: co-IP

Row | binding [1] | binding [2] | Molecule
1 | binds | – | Par-3/Bazooka
2 | – | binds | B1
3 | – | binds | B2
4 | – | no binding | B3

Source: article doi:10.1101/404863
